Values joined by “and” are separate entries in the source; they are usually repeats but may differ in a detail not shown here. Equal values may be shown once. These results got no clear call from the source, so the numbers are uncertain. Unless noted, calls follow the shape of the dose curve; as a rule, active = well fitted curve in the direction sought with a large enough effect in the repeat runs; inconclusive = weak or mixed curves; inactive = no such curve, though single readings can be large; an effect the other way counts as inactive or inconclusive.
How the values were obtained:
[1] = qHTS assay for small molecule agonists of the p53 signaling pathway (AID 651631; calls by dose curve; also: potency is read from the fitted curve at half-maximal effect; nearly all actives have a fitted effect of over 15% in size); conditions: HCT-116 p53RE-bla reporter, beta-lactamase FRET ratio, 16 h
Method in brief: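 Testing took place in human colorectal HCT-116 cells with stable p53RE-driven beta-lactamase. After 16 h of compound exposure at 37 °C, a FRET substrate was added and fluorescence recorded 2 h later.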

Sequences of proteins named here, by UniProt entry; tags and fusion partners are left off.
UniProt P10275, whole entry: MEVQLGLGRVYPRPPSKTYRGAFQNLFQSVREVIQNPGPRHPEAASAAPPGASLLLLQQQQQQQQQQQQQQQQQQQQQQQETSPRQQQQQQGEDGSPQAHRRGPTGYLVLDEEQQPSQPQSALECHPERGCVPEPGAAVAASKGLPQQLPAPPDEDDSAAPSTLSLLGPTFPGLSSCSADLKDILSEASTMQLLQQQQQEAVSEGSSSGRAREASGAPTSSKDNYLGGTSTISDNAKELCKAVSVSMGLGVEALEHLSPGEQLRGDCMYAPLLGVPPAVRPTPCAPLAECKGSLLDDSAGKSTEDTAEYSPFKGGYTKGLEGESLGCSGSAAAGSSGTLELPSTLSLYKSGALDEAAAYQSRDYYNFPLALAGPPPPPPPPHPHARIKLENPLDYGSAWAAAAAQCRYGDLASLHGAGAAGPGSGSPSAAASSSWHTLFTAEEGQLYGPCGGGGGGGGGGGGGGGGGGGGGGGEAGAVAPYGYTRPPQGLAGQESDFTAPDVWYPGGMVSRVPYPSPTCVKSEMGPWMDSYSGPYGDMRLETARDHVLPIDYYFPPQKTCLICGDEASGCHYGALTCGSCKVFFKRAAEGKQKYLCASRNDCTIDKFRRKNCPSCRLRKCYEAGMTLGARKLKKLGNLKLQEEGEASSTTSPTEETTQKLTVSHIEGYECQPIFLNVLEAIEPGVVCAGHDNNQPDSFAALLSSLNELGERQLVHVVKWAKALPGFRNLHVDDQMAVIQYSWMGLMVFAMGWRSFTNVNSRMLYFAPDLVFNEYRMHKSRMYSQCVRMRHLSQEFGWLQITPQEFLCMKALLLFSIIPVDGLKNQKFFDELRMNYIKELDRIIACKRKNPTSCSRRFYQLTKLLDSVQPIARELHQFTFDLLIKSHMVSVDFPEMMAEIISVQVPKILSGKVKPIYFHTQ
UniProt P37231, whole entry: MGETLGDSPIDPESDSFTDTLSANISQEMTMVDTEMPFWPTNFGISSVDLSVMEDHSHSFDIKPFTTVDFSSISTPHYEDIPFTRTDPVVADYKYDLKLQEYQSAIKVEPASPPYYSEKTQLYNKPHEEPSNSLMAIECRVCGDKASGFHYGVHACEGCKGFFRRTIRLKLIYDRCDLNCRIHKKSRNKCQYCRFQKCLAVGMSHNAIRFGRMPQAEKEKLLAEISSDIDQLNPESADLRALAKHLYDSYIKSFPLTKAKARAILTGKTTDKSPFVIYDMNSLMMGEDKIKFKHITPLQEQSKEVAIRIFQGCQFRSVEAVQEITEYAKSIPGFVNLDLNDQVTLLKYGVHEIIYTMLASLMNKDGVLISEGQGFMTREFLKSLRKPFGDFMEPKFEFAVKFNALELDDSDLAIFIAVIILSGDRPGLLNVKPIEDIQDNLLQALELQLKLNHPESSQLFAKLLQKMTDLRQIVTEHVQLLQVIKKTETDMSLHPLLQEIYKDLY
UniProt O75469, whole entry: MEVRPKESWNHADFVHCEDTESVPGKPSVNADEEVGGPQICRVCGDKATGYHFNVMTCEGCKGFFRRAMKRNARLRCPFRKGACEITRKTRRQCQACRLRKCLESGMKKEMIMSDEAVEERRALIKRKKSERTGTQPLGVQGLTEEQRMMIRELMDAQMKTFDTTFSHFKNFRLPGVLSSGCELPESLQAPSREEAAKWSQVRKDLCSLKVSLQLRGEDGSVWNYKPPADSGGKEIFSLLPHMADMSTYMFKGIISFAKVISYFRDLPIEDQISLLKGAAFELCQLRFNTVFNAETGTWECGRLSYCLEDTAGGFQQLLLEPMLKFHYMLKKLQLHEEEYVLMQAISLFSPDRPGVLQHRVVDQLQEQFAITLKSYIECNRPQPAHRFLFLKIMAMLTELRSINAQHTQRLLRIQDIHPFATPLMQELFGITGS
UniProt P33261, whole entry: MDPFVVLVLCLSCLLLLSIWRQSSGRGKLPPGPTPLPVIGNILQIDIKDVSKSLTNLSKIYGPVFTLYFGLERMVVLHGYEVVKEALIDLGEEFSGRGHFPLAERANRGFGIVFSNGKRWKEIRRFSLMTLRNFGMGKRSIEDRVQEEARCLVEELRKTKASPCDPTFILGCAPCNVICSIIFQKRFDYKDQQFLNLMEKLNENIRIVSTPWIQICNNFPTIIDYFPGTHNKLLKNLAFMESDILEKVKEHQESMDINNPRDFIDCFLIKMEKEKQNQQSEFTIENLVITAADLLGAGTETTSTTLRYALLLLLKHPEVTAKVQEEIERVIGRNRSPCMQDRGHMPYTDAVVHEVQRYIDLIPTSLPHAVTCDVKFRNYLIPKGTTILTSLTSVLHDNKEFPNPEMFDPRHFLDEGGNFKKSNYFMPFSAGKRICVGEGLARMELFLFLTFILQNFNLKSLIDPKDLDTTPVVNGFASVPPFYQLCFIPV
UniProt P05177, whole entry: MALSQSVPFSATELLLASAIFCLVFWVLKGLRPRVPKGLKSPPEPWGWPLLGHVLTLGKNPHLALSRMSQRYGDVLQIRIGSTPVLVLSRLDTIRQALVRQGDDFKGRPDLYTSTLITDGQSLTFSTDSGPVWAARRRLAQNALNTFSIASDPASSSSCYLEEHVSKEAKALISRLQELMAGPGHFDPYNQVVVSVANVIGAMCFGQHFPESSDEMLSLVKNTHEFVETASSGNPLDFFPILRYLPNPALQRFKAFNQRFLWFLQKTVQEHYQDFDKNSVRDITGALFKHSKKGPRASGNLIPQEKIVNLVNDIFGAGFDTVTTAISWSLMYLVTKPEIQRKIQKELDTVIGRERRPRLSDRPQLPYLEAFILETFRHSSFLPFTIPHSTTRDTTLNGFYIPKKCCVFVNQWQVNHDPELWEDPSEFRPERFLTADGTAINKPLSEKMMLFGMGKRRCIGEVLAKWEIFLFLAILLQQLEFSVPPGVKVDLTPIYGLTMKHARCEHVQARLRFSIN
UniProt P35869, whole entry: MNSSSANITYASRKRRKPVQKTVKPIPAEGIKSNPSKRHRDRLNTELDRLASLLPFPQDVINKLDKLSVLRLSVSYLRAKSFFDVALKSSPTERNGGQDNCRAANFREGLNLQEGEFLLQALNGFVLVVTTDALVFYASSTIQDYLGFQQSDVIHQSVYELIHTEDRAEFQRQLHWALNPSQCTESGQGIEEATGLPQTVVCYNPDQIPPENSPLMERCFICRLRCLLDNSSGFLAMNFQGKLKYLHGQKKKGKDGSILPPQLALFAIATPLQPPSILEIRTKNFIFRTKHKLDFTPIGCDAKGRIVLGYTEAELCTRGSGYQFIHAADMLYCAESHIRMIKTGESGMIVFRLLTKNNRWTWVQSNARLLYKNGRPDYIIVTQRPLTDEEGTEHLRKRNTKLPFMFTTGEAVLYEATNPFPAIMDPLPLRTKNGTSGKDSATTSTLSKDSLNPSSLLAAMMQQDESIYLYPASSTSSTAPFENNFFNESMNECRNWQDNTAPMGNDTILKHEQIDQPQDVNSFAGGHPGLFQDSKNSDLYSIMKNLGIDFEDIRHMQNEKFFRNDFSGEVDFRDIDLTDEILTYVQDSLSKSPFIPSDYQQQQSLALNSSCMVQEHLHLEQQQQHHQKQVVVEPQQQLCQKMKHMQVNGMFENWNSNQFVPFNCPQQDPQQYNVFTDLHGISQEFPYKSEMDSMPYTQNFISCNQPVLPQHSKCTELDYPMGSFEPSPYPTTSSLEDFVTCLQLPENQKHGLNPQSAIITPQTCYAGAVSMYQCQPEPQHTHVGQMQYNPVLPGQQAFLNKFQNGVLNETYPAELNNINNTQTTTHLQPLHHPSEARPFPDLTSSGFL
UniProt P11511, whole entry: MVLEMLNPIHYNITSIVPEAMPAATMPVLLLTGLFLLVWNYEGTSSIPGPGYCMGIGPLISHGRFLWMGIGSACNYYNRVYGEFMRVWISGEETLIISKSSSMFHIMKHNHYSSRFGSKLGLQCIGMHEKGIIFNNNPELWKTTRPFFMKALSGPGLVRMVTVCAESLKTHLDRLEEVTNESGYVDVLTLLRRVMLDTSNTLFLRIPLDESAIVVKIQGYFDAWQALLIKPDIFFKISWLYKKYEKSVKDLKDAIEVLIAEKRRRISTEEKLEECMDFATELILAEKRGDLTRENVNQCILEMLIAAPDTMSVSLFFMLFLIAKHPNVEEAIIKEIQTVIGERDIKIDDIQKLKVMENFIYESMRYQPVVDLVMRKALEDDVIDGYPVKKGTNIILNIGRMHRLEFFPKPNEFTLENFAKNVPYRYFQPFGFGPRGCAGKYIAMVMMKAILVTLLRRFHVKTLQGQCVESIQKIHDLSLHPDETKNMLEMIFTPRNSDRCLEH
UniProt P19793, whole entry: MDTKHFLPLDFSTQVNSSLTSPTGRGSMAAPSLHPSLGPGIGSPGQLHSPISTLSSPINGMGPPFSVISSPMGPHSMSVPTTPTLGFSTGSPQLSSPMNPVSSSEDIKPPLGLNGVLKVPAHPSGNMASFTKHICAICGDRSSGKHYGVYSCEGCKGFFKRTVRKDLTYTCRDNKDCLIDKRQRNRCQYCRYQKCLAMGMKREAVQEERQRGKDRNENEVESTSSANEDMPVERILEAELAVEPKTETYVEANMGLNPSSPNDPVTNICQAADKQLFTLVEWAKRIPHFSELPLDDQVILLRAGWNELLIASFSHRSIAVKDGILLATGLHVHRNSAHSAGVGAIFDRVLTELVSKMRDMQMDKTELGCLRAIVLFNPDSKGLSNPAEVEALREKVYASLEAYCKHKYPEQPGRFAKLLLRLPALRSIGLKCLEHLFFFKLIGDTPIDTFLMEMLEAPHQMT
UniProt P16473, whole entry: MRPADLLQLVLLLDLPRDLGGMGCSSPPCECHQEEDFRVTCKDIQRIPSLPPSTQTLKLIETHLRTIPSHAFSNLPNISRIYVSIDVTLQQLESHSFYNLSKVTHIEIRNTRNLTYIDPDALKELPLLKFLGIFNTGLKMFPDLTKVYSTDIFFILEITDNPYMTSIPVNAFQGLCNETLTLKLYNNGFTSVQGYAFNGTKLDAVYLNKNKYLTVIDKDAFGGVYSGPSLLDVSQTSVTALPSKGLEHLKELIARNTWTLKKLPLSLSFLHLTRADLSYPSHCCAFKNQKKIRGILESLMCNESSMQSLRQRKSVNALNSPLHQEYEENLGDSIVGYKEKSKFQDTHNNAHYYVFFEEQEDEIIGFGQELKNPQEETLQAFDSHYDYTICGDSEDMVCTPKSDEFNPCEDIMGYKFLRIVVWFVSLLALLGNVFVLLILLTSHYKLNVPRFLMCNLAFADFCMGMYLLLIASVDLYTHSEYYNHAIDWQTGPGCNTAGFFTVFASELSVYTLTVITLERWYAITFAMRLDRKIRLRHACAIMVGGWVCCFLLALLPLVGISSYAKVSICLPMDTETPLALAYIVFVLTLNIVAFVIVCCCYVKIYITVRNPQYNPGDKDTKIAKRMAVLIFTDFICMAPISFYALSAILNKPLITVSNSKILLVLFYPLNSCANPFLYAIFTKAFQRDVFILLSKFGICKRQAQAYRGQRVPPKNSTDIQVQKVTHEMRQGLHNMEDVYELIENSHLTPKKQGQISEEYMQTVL
UniProt P06401, whole entry: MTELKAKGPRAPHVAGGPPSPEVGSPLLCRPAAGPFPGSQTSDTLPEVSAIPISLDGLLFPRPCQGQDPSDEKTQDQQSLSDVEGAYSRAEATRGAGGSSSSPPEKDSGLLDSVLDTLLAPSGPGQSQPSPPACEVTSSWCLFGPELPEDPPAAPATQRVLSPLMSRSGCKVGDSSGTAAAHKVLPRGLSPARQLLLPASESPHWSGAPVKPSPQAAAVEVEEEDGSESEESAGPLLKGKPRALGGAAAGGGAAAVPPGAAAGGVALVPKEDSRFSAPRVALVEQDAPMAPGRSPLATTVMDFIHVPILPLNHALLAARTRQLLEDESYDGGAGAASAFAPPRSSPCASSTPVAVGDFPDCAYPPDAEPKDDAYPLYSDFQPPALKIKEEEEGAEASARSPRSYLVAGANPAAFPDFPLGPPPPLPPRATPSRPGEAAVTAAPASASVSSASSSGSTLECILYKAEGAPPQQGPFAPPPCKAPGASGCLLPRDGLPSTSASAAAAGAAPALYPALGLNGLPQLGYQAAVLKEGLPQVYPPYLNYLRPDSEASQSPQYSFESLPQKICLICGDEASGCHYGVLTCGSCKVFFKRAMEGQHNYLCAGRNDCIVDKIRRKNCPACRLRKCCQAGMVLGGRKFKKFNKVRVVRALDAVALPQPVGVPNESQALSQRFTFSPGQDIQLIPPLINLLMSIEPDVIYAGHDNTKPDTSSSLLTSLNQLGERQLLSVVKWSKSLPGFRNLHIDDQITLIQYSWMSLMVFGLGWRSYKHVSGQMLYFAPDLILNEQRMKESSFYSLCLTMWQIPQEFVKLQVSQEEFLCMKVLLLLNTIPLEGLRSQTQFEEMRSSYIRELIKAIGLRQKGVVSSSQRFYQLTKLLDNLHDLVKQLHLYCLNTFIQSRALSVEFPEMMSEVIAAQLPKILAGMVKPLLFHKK

[2] = qHTS assay for small molecule disruptors of the mitochondrial membrane potential (AID 720635); conditions: HepG2 mitochondrial membrane potential, Mito-MPS dye ratio; ratio activity, negative = MMP loss: at 83.2 µM (top of the series) unless noted; also: potency is read from the fitted curve at half-maximal effect; as to ratio activity, negative = MMP loss: % is scaled to controls: 0 for no effect and ±100 for the full control effect
Method in brief: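 Mitochondrial membrane potential tracked with Mito-MPS dye, red aggregates (ex 540/em 590 nm) against green monomers (ex 490/em 535 nm). Compound treatment 1 hr at 37C, dye 30 min in HepG2.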

[3] = biological target: Glucocorticoid receptor (Homo sapiens) (UniProt P04150); assay: qHTS assay to identify small molecule antagonists of the glucocorticoid receptor (GR) signaling pathway (AID 720692; active = well fitted inhibition curve with a large enough effect in the signal ratio in the repeat runs, not every such curve was filed as active; inconclusive = weak or mixed curves, or effect the other way; inactive = no such curve, though single readings can be large or run the other way; the % refers to the signal ratio; also: potency is read from the fitted curve at half-maximal effect); conditions: GR-bla HeLa, beta-lactamase FRET ratio, dexamethasone-stimulated, 18 h
[4] = qHTS assay for identifying genotoxic compounds that show differential cytotoxicity against isogenic chicken DT40 cell lines with known DNA damage response pathways - wild type cell line (AID 743012); conditions: DT40 wild type chicken cells viability, CellTiter-Glo, 40 h; also: potency is read from the fitted curve at half-maximal effect; nearly all actives have a fitted effect of over 60% in size
Method in brief: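 First, wild type DT40 cells were plated at 300 per well and equilibrated about 0.5 h at 37 C/5% CO2. Next, compounds in DMSO were added and exposure lasted 40 h. Finally, CellTiter-Glo was added for 30 min at room temperature and luminescence recorded.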

[5] = biological target: Androgen receptor (Homo sapiens) (UniProt P10275); assay: qHTS assay to identify small molecule antagonists of the androgen receptor (AR) signaling pathway (AID 743035; active = well fitted inhibition curve with a large enough effect in the signal ratio in the repeat runs, not every such curve was filed as active; inconclusive = weak or mixed curves, or effect the other way; inactive = no such curve, though single readings can be large or run the other way; the % refers to the signal ratio; also: potency is read from the fitted curve at half-maximal effect); conditions: HEK293 AR-UAS-bla, R1881-stimulated, beta-lactamase FRET, 16 h
[6] = qHTS assay to identify small molecule antagonists of the thyroid receptor (TR) signaling pathway - cell viability counter screen (AID 743064); conditions: GH3.TRE-Luc viability, CellTiter-Fluor, 24 h; also: potency is read from the fitted curve at half-maximal effect; nearly all actives have a fitted effect of over 50% in size
Method in brief: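 Viability of T3-stimulated (1 nM final) GH3.TRE-Luc cells is measured by CellTiter-Fluor fluorescence after 23.5 h compound exposure at 37 °C plus 30 min reagent incubation.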

[7] = qHTS assay to identify small molecule antagonists of the estrogen receptor alpha (ER-alpha) signaling pathway using the BG1 cell line (AID 743080; calls by dose curve;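 also: BG1 cells stimulated with 17beta-estradiol alongside compound; nearly all actives have a fitted effect of over 25% in size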; also: potency is read from the fitted curve at half-maximal effect; as to activity change, negative = inhibition: % is scaled to controls: 0 for no effect and ±100 for the full control effect); conditions: BG1Luc4E2 ERE-luciferase antagonist mode, luminescence; activity change, negative = inhibition: at 70.3 µM (top of the series)
Method in brief: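 BG1-Luc-4E2 cells (endogenous full-length ER-alpha, 4xERE luciferase) hormone-starved 5 days in charcoal-stripped FBS, plated 4,000/well for 24 h, then compound plus 17beta-estradiol for 21.5 h at 37 C; ONE-Glo luminescence read.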

[8] = biological target: Peroxisome proliferator-activated receptor gamma (Homo sapiens) (UniProt P37231); assay: qHTS assay to identify small molecule agonists of the peroxisome proliferator-activated receptor gamma (PPARg) signaling pathway (AID 743094; active = well fitted activation curve with a large enough effect in the signal ratio in the repeat runs, not every such curve was filed as active; inconclusive = weak or mixed curves, or effect the other way; inactive = no such curve, though single readings can be large or run the other way; the % refers to the signal ratio; also: potency is read from the fitted curve at half-maximal effect; as to activation: % is scaled to controls: 0 for no effect and ±100 for the full control effect); conditions: HEK293H PPARg-UAS-bla, beta-lactamase FRET ratio, 17 h; activation: at 57 µM (top of the series) unless noted
Method in brief: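 Compounds dissolved in DMSO were added to PPARg UAS-bla HEK293H cells for 17 h at 37C, and reporter expression was quantified by fluorescence intensity after 1 h with LiveBLAzer B/G FRET substrate.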

[9] = A CellTox Green Cytotoxicity Assay to monitor cytotoxicity in HEK293 cells - 40 hour (AID 1224871); conditions: CellTox Green fluorescence; also: potency is read from the fitted curve at half-maximal effect; nearly all actives have a fitted effect of over 45% in size
Method in brief: (§1)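 Fluorescence intensity, read at 0, 8, 16, 24, 32 and 40 h of compound treatment, reflected dye binding to DNA of dead HEK293 cells; compounds (23 nL, DMSO) were added 5 h after plating cells with reagent.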

[10] = A CellTox Green Cytotoxicity Assay to monitor cytotoxicity in HEK293 cells - 24 hour (AID 1224875); conditions: CellTox Green fluorescence; also: potency is read from the fitted curve at half-maximal effect; nearly all actives have a fitted effect of over 45% in size
Method in brief: as §1

[11] = A CellTox Green Cytotoxicity Assay to monitor cytotoxicity in HEK293 cells - 8 hour (AID 1224884); conditions: CellTox Green fluorescence; also: potency is read from the fitted curve at half-maximal effect; nearly all actives have a fitted effect of over 35% in size
Method in brief: as §1

[12] = Human pregnane X receptor (PXR) small molecule agonists, qHTS cell viability counter screen (AID 1346977); conditions: PXR-Luc HepG2 viability, CellTiter-Fluor, 24 h; also: potency is read from the fitted curve at half-maximal effect; nearly all actives have a fitted effect of over 50% in size
Method in brief: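 Viability counter screen: CellTiter-Fluor signal in PXR-Luc HepG2 cells, 24hr compound exposure, 37C, 5% CO2.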

[13] = biological target: Nuclear receptor subfamily 1 group I member 2 (Homo sapiens) (UniProt O75469); assay: Human pregnane X receptor (PXR) small molecule agonists, qHTS assay (AID 1346982); conditions: PXR-Luc HepG2, CYP3A4 luciferase reporter, 24 h; also: potency is read from the fitted curve at half-maximal effect; nearly all actives have a fitted effect of over 35% in size
Method in brief: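 Compound-induced hPXR transactivation of a CYP3A4 luciferase reporter was scored in HepG2 PXR-Luc cells over 24 hr at 37 C, 5% CO2, by luminescence.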

[14] = qHTS assay to identify small molecule agonists of the farnesoid-X-receptor (FXR) signaling pathway - cell viability counter screen (AID 743218); conditions: FXR-bla HEK293T viability, CellTiter-Glo luminescence, 16 h; also: potency is read from the fitted curve at half-maximal effect; nearly all actives have a fitted effect of over 45% in size
Method in brief: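 Parallel cytotoxicity test: compound-treated (16 h, 37 C) HEK 293T FXR-bla reporter cells were lysed with CellTiter-Glo and luminescence recorded.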

[15] = qHTS assay to identify small molecule agonists of the retinoic acid receptor (RAR) signaling pathway (AID 1159553); conditions: C3RL4 RARE luciferase reporter, agonist, 6 h; at 73.3 µM (top of the series); also: % is scaled to controls: 0 for no effect and ±100 for the full control effect
Method in brief: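 Reporter readout comes from luciferase under RARE control in C3RL4 cells; compound exposure lasts 6 hr at 37 C in 5% CO2, and luminescence is recorded following a 30 min room-temperature incubation with reagent.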

[16] = qHTS assay to identify small molecule agonists of the progesterone receptor (PR) signaling pathway - cell viability counter screen (AID 1346799; calls by dose curve; also: potency is read from the fitted curve at half-maximal effect; nearly all actives have a fitted effect of over 45% in size); conditions: PR-UAS-bla HEK293T viability, CellTiter-Glo luminescence, 16 h
Method in brief: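 In parallel with the beta-lactamase readout, cytotoxicity toward PR-UAS-bla HEK293T cells was measured by CellTiter-Glo luminescence following 16 hr compound incubation in 2% charcoal-stripped FBS medium.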

[17] = biological target: Cytochrome P450 2C19 (Homo sapiens) (UniProt P33261); assay: Cytochrome P450 Family 2 Subfamily C Member 19 (CYP2C19) small molecule antagonists: luciferase reporter qHTS assay (AID 1671197); conditions: P450-Glo CYP2C19 enzyme, luciferin luminescence, 1 h; also: potency is read from the fitted curve at half-maximal effect; nearly all actives have a fitted effect of over 65% in size
Method in brief: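 P450-Glo CYP2C19 system: enzyme-substrate mix with compound 10 min at room temperature, then NADPH regeneration solution, 1 h at 37C. Proluciferin-to-luciferin conversion detected by luminescence after 20 min with detection reagent; ketoconazole as positive control.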

[18] = biological target: Cytochrome P450 2C9 (Homo sapiens) (UniProt P11712); assay: Cytochrome P450 Family 2 Subfamily C Member 9 (CYP2C9) small molecule antagonists: luciferase reporter qHTS assay (AID 1671198); conditions: P450-Glo CYP2C9 enzyme assay, luciferin luminescence; also: potency is read from the fitted curve at half-maximal effect; nearly all actives have a fitted effect of over 50% in size
Method in brief: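 Enzyme-substrate mix preincubated with compound 10 min at room temperature; reaction started with NADPH regeneration solution, 1 h 37C. Luminescent luciferin product read after 20 min detection reagent.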

[19] = biological target: Cytochrome P450 1A2 (Homo sapiens) (UniProt P05177); assay: Cytochrome P450 Family 1 Subfamily A Member 2 (CYP1A2) small molecule antagonists: luciferase reporter qHTS assay (AID 1671199); conditions: P450-Glo CYP1A2 enzyme, luciferin luminescence, 1 h; also: potency is read from the fitted curve at half-maximal effect; nearly all actives have a fitted effect of over 50% in size
[20] = qHTS assay to identify small molecule antagonists of the estrogen receptor alpha (ER-alpha) signaling pathway using the BG1 cell line - cell viability counter screen (AID 743081); conditions: BG1Luc4E2 viability, CellTiter-Fluor, 22 h
[21] = biological target: Aryl hydrocarbon receptor (Homo sapiens) (UniProt P35869); assay: qHTS assay to identify small molecule that activate the aryl hydrocarbon receptor (AhR) signaling pathway (AID 743085); conditions: HepG2 AhR-luc (HG2L7.5c1), luciferase, 24 h; also: potency is read from the fitted curve at half-maximal effect; nearly all actives have a fitted effect of over 15% in size
[22] = qHTS assay for identifying genotoxic compounds that show differential cytotoxicity against isogenic chicken DT40 cell lines with known DNA damage response pathways - Rev3 mutant cell line (AID 743014); conditions: chicken DT40 Rev3-/- viability, CellTiter-Glo, 40 h; also: potency is read from the fitted curve at half-maximal effect; nearly all actives have a fitted effect of over 55% in size
[23] = biological target: Aromatase (Homo sapiens) (UniProt P11511); assay: qHTS assay to identify aromatase inhibitors (AID 743083); conditions: MCF-7 aro ERE, testosterone-driven ERE luciferase, 24 h; also: potency is read from the fitted curve at half-maximal effect; nearly all actives have a fitted effect of over 55% in size
[24] = qHTS assay for small molecule agonists of the antioxidant response element (ARE) signaling pathway (AID 743202; active = well fitted activation curve with a large enough effect in the signal ratio in the repeat runs, not every such curve was filed as active; inconclusive = weak or mixed curves, or effect the other way; inactive = no such curve, though single readings can be large or run the other way; the % refers to the signal ratio; also: potency is read from the fitted curve at half-maximal effect); conditions: HepG2 ARE-bla reporter, beta-lactamase FRET, 16 h; activation: at 73.3 µM (top of the series)
Method in brief: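 Quantitative high-throughput format in HepG2 cells bearing an integrated ARE-beta-lactamase reporter. Compound exposure lasted 16 h at 37 C, and fluorescence was read 2 h after adding LiveBLAzer B/G substrate at room temperature.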

[25] = qHTS assay to identify small molecule antagonists of the peroxisome proliferator-activated receptor delta (PPARd) signaling pathway - cell viability counter screen (AID 743213); conditions: PPARd-bla HEK293H viability, CellTiter-Glo luminescence, 17 h; viability change, negative = cytotoxic: at 62 µM (top of the series)
Method in brief: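 PPARd-bla HEK293H cells (3000/well) got compound plus 300 nM L165041 agonist for 17 h at 37 C. Viability in the same wells came from CellTiter-Glo luminescence after 30 min at room temperature.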

[26] = qHTS assay to identify small molecule agonists of the NFkB signaling pathway (AID 1159509; active = well fitted curve in the direction sought with a large enough effect in the signal ratio in the repeat runs, not every such curve was filed as active; inconclusive = weak or mixed curves, or a change in a side signal; inactive = no such curve, though single readings can be large or run the other way; the % refers to the signal ratio; also: potency is read from the fitted curve at half-maximal effect); conditions: NFkB-bla ME-180 cells, beta-lactamase FRET ratio, 5 h
Method in brief: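 ME-180 NFkB-bla, 2,000 cells/well, overnight plating; cpd pinned in DMSO, 5 h 37 C; B/G FRET substrate 1.5 h RT; ex 405, em 460/530 nm.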

[27] = qHTS assay to identify small molecule agonists of the endoplasmic reticulum stress response signaling pathway (AID 1159516; active = well fitted activation curve with a large enough effect in the signal ratio in the repeat runs, not every such curve was filed as active; inconclusive = weak or mixed curves, or effect the other way; the % refers to the signal ratio; also: potency is read from the fitted curve at half-maximal effect); conditions: ESRE-bla HeLa, ER stress beta-lactamase reporter, 5 h; activation: at 61 µM (top of the series)
Method in brief: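 An ESRE-bla HeLa cell assay: compounds were pin-transferred from DMSO onto overnight-plated cells and left 5 hr at 37 C. Substrate was then loaded for 2 hr at room temperature before reading fluorescence at 460 nm and 530 nm.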

[28] = biological target: Retinoic acid receptor RXR-alpha (Homo sapiens) (UniProt P19793); assay: qHTS assay to identify small molecule agonists of the RXR signaling pathway (AID 1159527; calls by dose curve; also: % is scaled to controls: 0 for no effect and ±100 for the full control effect; nearly all actives have a fitted effect of over 35% in size); conditions: HEK293T RXRa-UAS-bla, beta-lactamase ratio, 16 h; activation: at 76.8 µM (top of the series) unless noted
Method in brief: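 Compounds in DMSO were added to RXR-alpha-UAS-bla HEK 293T cells kept in 2% charcoal-stripped serum, and incubated 16 hr at 37 C with 5% CO2. Reporter signal came from a 2 hr B/G FRET substrate step.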

[29] = qHTS assay to identify small molecule antagonists of the sonic hedgehog signaling (Shh) pathway (AID 1259369; calls by dose curve); conditions: NIH/3T3 Gli1-Luc reporter, Shh antagonist, luminescence 24 h
Method in brief: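 For antagonist detection, the reporter line received test compounds together with conditioned medium, incubated 24hr at 37 C, 5% CO2, then luminescence was recorded following 30min room-temperature luciferase reagent incubation.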

[30] = biological target: Thyrotropin receptor (Homo sapiens) (UniProt P16473); assay: qHTS assay to identify small molecule antagonists of the thyroid stimulating hormone receptor (TSHR) signaling pathway (AID 1259385; calls by dose curve; also: potency is read from the fitted curve at half-maximal effect; nearly all actives have a fitted effect of over 20% in size); conditions: TSHR-HEK293 cAMP HTRF, TSH-stimulated antagonist mode
[31] = biological target: Progesterone receptor (Homo sapiens) (UniProt P06401); assay: qHTS assay to identify small molecule agonists of the progesterone receptor (PR) signaling pathway (AID 1346784; calls by dose curve; also: potency is read from the fitted curve at half-maximal effect; nearly all actives have a fitted effect of over 30% in size); conditions: PR-UAS-bla HEK293T, beta-lactamase FRET ratio, 16 h; activation: at 92.4 µM (top of the series)
Method in brief: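 Fluorescence from LiveBLAzer B/G FRET substrate cleavage (2 hr, RT) reported PR activation in PR-UAS-bla HEK 293T cells treated 16 hr at 37C/5% CO2 with compounds; medium contained 2% charcoal-stripped FBS.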

O=[N+]([O-])OCC(CO[N+](=O)[O-])(CO[N+](=O)[O-])CO[N+](=O)[O-]
inconclusive: Potency [1] 15 µM | Potency [2] 68.6 µM | Potency [3] 26.8 µM | Potency [4] 21.1 µM | Potency [5] 8.49 µM | Potency [6] 15 µM | Potency [7] 2.11 µM | Potency [8] 4.77 µM | Potency [9] 24.5 µM | Potency [10] 30.9 µM | Potency [11] 49 µM | Potency [12] 27.3 µM | Potency [13] 27.3 µM

O=[N+]([O-])[O-].[NH4+]
inconclusive: Potency [6] 23.7 µM | Potency [14] 0.12 µM | activation [15] 3.16% | Potency [16] 24.3 µM | Potency [17] 87.1 µM and 89.4 µM | Potency [18] 87.1 µM | Potency [19] 77.6 µM and 63.3 µM

CC(C)N(CCCl)C(C)C
inconclusive: Potency [3] 1.07 µM | Potency [20] 16.8 µM

COc1ccc([N+](=O)[O-])cc1[N+](=O)[O-]
inconclusive: ratio activity, negative = MMP loss [2] -12.9% | Potency [4] 68.6 µM | Potency [21] 27.3 µM | Potency [17] 89.4 µM

CCOP(=O)(CC)Oc1ccc([N+](=O)[O-])cc1 (configuration not stated)
inconclusive: Potency [1] 0.075 µM | Potency [22] 18.8 µM | Potency [5] 15.1 µM | activity change, negative = inhibition [7] -21.7% | Potency [23] 13.3 µM | activation [8] 2.42% | Potency [24] 23.7 µM | Potency [25] 2.66 µM | Potency [26] 0.107 µM | Potency [27] 13.4 µM | activation [28] -9.53% [at 35.3 µM] | Potency [29] 0.0422 µM | Potency [30] 1.19 µM | Potency [31] 5.31 µM | Potency [16] 0.596 µM

N#CBr
inconclusive: Potency [19] 79.6 µM

Reference: PubChem BioAssay (Tox21)
